The record followed here is publication doi:10.1101/2020.04.22.053561.

These are yes or no findings as the source states them, for the method shown. In cells and extracts the contact can be indirect. Here binding means that the protein was enriched with, or labelled near, the bait; the list need not be complete.

The target in this assay is T1, BCL9 (full-length, control tumors) (mouse (endogenous in mouse tumors)) (UniProt Q9D219).
T1 sequence: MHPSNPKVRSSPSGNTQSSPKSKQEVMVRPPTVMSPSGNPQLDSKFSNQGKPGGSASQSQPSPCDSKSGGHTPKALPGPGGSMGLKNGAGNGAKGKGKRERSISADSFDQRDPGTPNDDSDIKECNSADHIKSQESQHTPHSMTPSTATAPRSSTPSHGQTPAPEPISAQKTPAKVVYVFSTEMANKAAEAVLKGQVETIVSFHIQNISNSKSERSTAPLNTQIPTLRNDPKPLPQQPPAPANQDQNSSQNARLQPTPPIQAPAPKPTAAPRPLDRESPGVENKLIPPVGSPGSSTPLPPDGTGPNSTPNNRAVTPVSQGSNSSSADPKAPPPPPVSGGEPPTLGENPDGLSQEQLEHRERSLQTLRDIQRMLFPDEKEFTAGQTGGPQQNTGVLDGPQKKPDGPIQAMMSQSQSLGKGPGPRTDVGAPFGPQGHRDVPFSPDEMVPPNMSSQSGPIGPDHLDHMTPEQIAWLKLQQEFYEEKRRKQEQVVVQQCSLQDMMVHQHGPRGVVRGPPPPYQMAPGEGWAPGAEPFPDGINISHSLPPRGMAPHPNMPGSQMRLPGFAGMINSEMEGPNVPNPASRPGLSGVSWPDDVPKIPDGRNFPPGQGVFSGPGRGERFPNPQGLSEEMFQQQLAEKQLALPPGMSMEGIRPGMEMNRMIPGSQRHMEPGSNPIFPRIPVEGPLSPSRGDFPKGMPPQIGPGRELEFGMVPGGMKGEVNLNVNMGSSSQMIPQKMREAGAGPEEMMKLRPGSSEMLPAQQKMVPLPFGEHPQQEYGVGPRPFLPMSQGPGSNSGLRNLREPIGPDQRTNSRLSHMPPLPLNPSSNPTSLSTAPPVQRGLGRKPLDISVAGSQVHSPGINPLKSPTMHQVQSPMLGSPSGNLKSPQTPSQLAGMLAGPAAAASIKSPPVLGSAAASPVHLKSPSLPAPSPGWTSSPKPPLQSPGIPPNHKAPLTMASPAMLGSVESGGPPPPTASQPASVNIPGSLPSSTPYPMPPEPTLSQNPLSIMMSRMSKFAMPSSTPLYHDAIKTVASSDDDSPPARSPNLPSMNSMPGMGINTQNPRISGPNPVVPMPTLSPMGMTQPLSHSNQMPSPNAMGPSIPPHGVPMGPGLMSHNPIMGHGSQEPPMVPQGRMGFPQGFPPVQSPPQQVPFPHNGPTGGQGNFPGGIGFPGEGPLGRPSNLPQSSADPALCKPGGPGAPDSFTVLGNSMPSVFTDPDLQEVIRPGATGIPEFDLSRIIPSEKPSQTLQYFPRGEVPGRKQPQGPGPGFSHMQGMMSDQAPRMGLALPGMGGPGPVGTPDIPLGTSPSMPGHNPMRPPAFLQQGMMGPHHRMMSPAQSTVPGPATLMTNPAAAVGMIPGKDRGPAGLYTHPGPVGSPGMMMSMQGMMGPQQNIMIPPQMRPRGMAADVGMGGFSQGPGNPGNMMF
In words: affinity purification with mass spectrometry.

B1: TBX3 (endogenous, mouse tumors) (protein, UniProt P70324 1-741)
chain: MSLSMRDPVIPGTSMAYHPFLPHRAPDFAMSAVLGHQPPFFPALTLPPNGAAALSLPGALAKPIMDQLVGAAETGIPFSSLGPQAHLRPLKTMEPEEDVEDDPKVHLEAKELWDQFHKRGTEMVITKSGRRMFPPFKVRCSGLDKKAKYILLMDIIAADDCRYKFHNSRWMVAGKADPEMPKRMYIHPDSPATGEQWMSKVVTFHKLKLTNNISDKHGFTLAFPSDHATWQGNYSFGTQTILNSMHKYQPRFHIVRANDILKLPYSTFRTYLFPETEFIAVTAYQNDKITQLKIDNNPFAKGFRDTGNGRREKRKQLTLQSMRVFEERHKKETSDESSSEQAAFNCFAQASSPAVSIVGTSNLKDLCPSEAESDAEAESKEEHGPEACDAAKISTTTAEEPGRDKGSPATRAQLFPAEPSRARDTARLDKASPDSRHSPATISSSTRVPGADERRSPGREGPVATKVDEARAIPAKDAFAPLSVQTDATAHLAQGPLPGLGFAPGLAGQQFFNGHPLFLHPGQFAMGGAFSSMAAGMGPLLATVSGASTGVSGLESTAMASAAAAQGLSGASAATLPFHLQQHVLASQGLAMSPFGSLFPYPYTYMAAAAAASTAAASSSVHRHPFLNLNSMRPRLRYSPYSIPVPVPDSSSLLATALPSMASAAGPLDGKAAALAASPASVAVDSGSELNSRSSTLSSGSVSLSPKLCSEKEAATSELQSIQRLVSGLEAKPDRSCSGSP
As to B1, the binding result is listed as “binds”.
